Out of some 140,000 compounds screened, about 4,300 (3.1%) were called active. Inconclusive results, whose numbers are uncertain, are shown with a selection of clear calls.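 The calls were made as follows: active = readout at or below -70, meaning at least 70% loss of cells showing the perinucleolar compartment, a nuclear body marking cancer cells; inconclusive = readout between -30 and a set limit; inactive = the rest.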
Experiment: High Content Assay for Compounds that inhibit the Assembly of the Perinucleolar Compartment;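 also: plate controls were DMSO wells for no effect and camptothecin positive control wells for full effect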
Conditions: PC3M PTB-GFP, PNC prevalence imaging, 16 h; at 10 µM; hits give low values
In short: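 Compounds are pinned in duplicate onto adhered PC3M cells stably expressing GFP-tagged PTB and incubated 16 h at 37 C. Cells are then fixed, nuclei stained with Hoechst, and PNC-positive cells counted.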

With `COC(=O)c1sc(S(=O)(=O)Nc2ccc3cn[nH]c3c2)c(C(=O)OC)c1C` as the compound, how does the activity change (PNC), negative = inhibition read?
The activity change (PNC), negative = inhibition was inconclusive: -42%.

With `CC(=O)Nc1c(Br)cc(N2C(=O)CCC2=O)cc1Br` as the compound, how does the activity change (PNC), negative = inhibition read?
Its activity change (PNC), negative = inhibition is inactive: 21.5%.

Which activity change (PNC), negative = inhibition does the source give for `O=C(O)CSC1CC(=O)N(c2ccc(Cl)c(Cl)c2)C1=O` (stereo not given) here?
Its activity change (PNC), negative = inhibition is inconclusive: -34.2%.

Which activity change (PNC), negative = inhibition does the source give for `Cc1c(Br)c([N+](=O)[O-])nn1CCCC(=O)Nc1sc2c(c1C(N)=O)CCC(C)C2` (stereo not given) here?
Its activity change (PNC), negative = inhibition is inconclusive: -69.7%.

Which activity change (PNC), negative = inhibition does the source give for `COC(=O)CNC(=O)C(Cc1c[nH]c2ccccc12)NC(=O)OC(C)(C)C` (stereo not given) here?
The activity change (PNC), negative = inhibition was inconclusive: -50.9%.

For `COc1cc(-n2c(N)c(C(=O)NCc3ccco3)c3nc4ccccc4nc32)cc(OC)c1OC`, which activity change (PNC), negative = inhibition is on record?
The activity change (PNC), negative = inhibition was inconclusive: -59.7%.

With `Cc1ccc(C2/C(=C(/O)c3ccccc3)C(=O)C(=O)N2CCN2CCOCC2)o1` (stereo not given) as the compound, how does the activity change (PNC), negative = inhibition read?
Its activity change (PNC), negative = inhibition is inactive: 57.6%.

Which activity change (PNC), negative = inhibition does the source give for `CC(=O)C1=C(O)C(=O)N(CC#N)C1c1cccs1` (stereo not given) here?
Its activity change (PNC), negative = inhibition is inconclusive: -37.2%.

For `COC(=O)CN1C(=O)C2(C(C#N)=C(N)Oc3n[nH]c(-c4cccs4)c32)c2ccccc21` (stereo not given), which activity change (PNC), negative = inhibition is on record?
The activity change (PNC), negative = inhibition was inconclusive: -32.7%.

With `CCn1c(N2CCN(C(=S)NCCc3ccccc3)CC2)nc2ccccc21` as the compound, how does the activity change (PNC), negative = inhibition read?
Its activity change (PNC), negative = inhibition is inactive: -11.7%.

For `c1ccc2c(c1)OC(CCCN1CCCCC1)c1ccccc1S2` (stereo not given), which activity change (PNC), negative = inhibition is on record?
Its activity change (PNC), negative = inhibition is active: -100%.

With `CCc1ccc2[nH]c(=O)c(CN(Cc3ccccc3)Cc3nnnn3Cc3ccco3)cc2c1` as the compound, how does the activity change (PNC), negative = inhibition read?
The activity change (PNC), negative = inhibition was inconclusive: -51%.

Which activity change (PNC), negative = inhibition does the source give for `Cc1ccc(S(=O)(=O)Nc2cc(C(F)(F)F)ccc2N2CCOCC2)cc1` here?
The activity change (PNC), negative = inhibition was inconclusive: -45.8%.

For `COc1ccc(C(=O)c2sc3nc(C)cc(-c4cccs4)c3c2N)cc1OC`, which activity change (PNC), negative = inhibition is on record?
The activity change (PNC), negative = inhibition was active: -81.7%.

Which activity change (PNC), negative = inhibition does the source give for `Cn1cnc2cc(OC(=O)c3ccccc3)ccc21` here?
Its activity change (PNC), negative = inhibition is inactive: 23.3%.

For `COc1ccccc1-n1c(SCC(=O)Nc2nnc(C)s2)nc2c(c1=O)SCC2`, which activity change (PNC), negative = inhibition is on record?
The activity change (PNC), negative = inhibition was inconclusive: -31.7%.

With `O=C(c1cc2c(ccc3ccccc32)oc1=O)N1CCN(CCO)CC1` as the compound, how does the activity change (PNC), negative = inhibition read?
Its activity change (PNC), negative = inhibition is inconclusive: -62.7%.

For `COC(=O)c1ccc(N2CCC(c3cc(-c4ccc(OC)cc4)n[nH]3)CC2)c([N+](=O)[O-])c1`, which activity change (PNC), negative = inhibition is on record?
The activity change (PNC), negative = inhibition was inactive: -2.78%.

Which activity change (PNC), negative = inhibition does the source give for `O=C(COc1ccc(Cl)cc1)Nc1ccc(Cc2ccncc2)cc1` here?
The activity change (PNC), negative = inhibition was inconclusive: -34.7%.

With `COc1ccc(-n2c(SCC(N)=O)nnc2-c2cccnc2)cc1` as the compound, how does the activity change (PNC), negative = inhibition read?
The activity change (PNC), negative = inhibition was inconclusive: -41.4%.

With `COc1cc(CN2CCN(c3ccccc3F)CC2)c([N+](=O)[O-])cc1OC` as the compound, how does the activity change (PNC), negative = inhibition read?
Its activity change (PNC), negative = inhibition is inconclusive: -39.8%.

Which activity change (PNC), negative = inhibition does the source give for `COc1ccc(OC)c(NC(=O)CSc2ncnc3c2cnn3-c2ccccc2Cl)c1` here?
The activity change (PNC), negative = inhibition was inconclusive: -51.7%.

For `C=CCn1c(SCC(=O)Nc2ccccc2)nnc1-c1cccc(S(=O)(=O)N2CCOCC2)c1`, which activity change (PNC), negative = inhibition is on record?
The activity change (PNC), negative = inhibition was inconclusive: -45.2%.

Which activity change (PNC), negative = inhibition does the source give for `Cc1cccc(Oc2nc(CN3CCOCC3)nc3sc4c(c23)CCCC4)c1` here?
Its activity change (PNC), negative = inhibition is active: -104%.

Which activity change (PNC), negative = inhibition does the source give for `c1ccc(-c2nc(CSc3nnnn3-c3ccccc3)cs2)cc1` here?
The activity change (PNC), negative = inhibition was inconclusive: -44.6%.

Which activity change (PNC), negative = inhibition does the source give for `O=C(CSc1nnc(Cc2ccccc2)n1-c1cccc(Cl)c1)NNC(=O)Cc1ccccc1` here?
Its activity change (PNC), negative = inhibition is inactive: 123%.

Which activity change (PNC), negative = inhibition does the source give for `CCc1cccc(C)c1NC(=O)CSc1nc2ccc(N3C(=O)c4ccccc4C3=O)cc2s1` here?
Its activity change (PNC), negative = inhibition is inactive: 36.5%.

With `COCCCNC(=S)NC(=O)c1ccccc1` as the compound, how does the activity change (PNC), negative = inhibition read?
Its activity change (PNC), negative = inhibition is inactive: -29.6%.

With `Cc1cc(=O)[nH]c(SCc2nc3ccc([N+](=O)[O-])cc3[nH]2)n1` as the compound, how does the activity change (PNC), negative = inhibition read?
The activity change (PNC), negative = inhibition was inconclusive: -61.3%.

With `CCCCn1nnc(NC(=O)CC23CC4CC(CC(C4)C2)C3)n1` as the compound, how does the activity change (PNC), negative = inhibition read?
Its activity change (PNC), negative = inhibition is inconclusive: -59.7%.

With `Cc1ccc(NC(NC(=O)Cc2ccccc2)C(Cl)(Cl)Cl)cc1` (stereo not given) as the compound, how does the activity change (PNC), negative = inhibition read?
Its activity change (PNC), negative = inhibition is active: -111%.

For `Cc1cc(C)c2[nH]c(O)c(N=NC(=S)NCC3CCCO3)c2c1` (stereo not given), which activity change (PNC), negative = inhibition is on record?
The activity change (PNC), negative = inhibition was inactive: -12.5%.

For `COc1ccc(N2CCN(C(=O)c3ccc(CS(=O)(=O)c4ccc(OC)cc4)o3)CC2)cc1`, which activity change (PNC), negative = inhibition is on record?
The activity change (PNC), negative = inhibition was inactive: 6.21%.

With `CN(C(=O)COC(=O)c1ccc(NS(=O)(=O)c2cccs2)cc1)C1CCCCC1` as the compound, how does the activity change (PNC), negative = inhibition read?
The activity change (PNC), negative = inhibition was inactive: -25.6%.

Which activity change (PNC), negative = inhibition does the source give for `C=CCOc1c(Br)cc(CNc2ccc(NC(=O)C(C)C)c(OC)c2)cc1OCC` here?
Its activity change (PNC), negative = inhibition is inactive: 32.5%.

For `CN(CC(=O)Nn1cnnc1)S(=O)(=O)c1cc(Cl)ccc1Cl`, which activity change (PNC), negative = inhibition is on record?
Its activity change (PNC), negative = inhibition is inconclusive: -57.7%.

With `CC(=O)N(NC(=O)c1ccc(C)cc1)C1CC(=O)N(c2ccccc2Cl)C1=O` (stereo not given) as the compound, how does the activity change (PNC), negative = inhibition read?
Its activity change (PNC), negative = inhibition is inactive: -24%.

For `CCCOc1ccc2c3c(c(=O)oc2c1OCCC)CCCC3`, which activity change (PNC), negative = inhibition is on record?
The activity change (PNC), negative = inhibition was active: -111%.

Which activity change (PNC), negative = inhibition does the source give for `COc1ccc(NC(=O)CC(Cc2ccccc2)C(=O)O)cc1` (stereo not given) here?
Its activity change (PNC), negative = inhibition is inconclusive: -36.7%.

Which activity change (PNC), negative = inhibition does the source give for `CCOc1nc(-c2ccc(C)cc2)ccc1-c1noc(COC)n1` here?
The activity change (PNC), negative = inhibition was inconclusive: -31.4%.

Which activity change (PNC), negative = inhibition does the source give for `CC(=O)N1CCN(S(=O)(=O)c2ccc(S(=O)(=O)NCC(C)C)cc2)CC1` here?
The activity change (PNC), negative = inhibition was inconclusive: -49.5%.

For `CCOC(=O)C1=C(C)N=C2SCCC(=O)N2C1c1cccs1` (stereo not given), which activity change (PNC), negative = inhibition is on record?
The activity change (PNC), negative = inhibition was inconclusive: -68.5%.

Which activity change (PNC), negative = inhibition does the source give for `CCN1CCN(C(=O)c2nn(-c3ccccc3)c(=O)c3ccccc23)CC1` here?
The activity change (PNC), negative = inhibition was inactive: 8.25%.

Which activity change (PNC), negative = inhibition does the source give for `Nn1c(Cc2ccccc2F)nnc1SCCOc1ccc(Cl)cc1` here?
The activity change (PNC), negative = inhibition was inactive: 19.7%.

With `CC(C)OC(=O)/C(C#N)=C/c1cn(Cc2ccccc2)c2ccccc12` as the compound, how does the activity change (PNC), negative = inhibition read?
The activity change (PNC), negative = inhibition was inconclusive: -57.9%.

With `O=C(CP(=O)(CO)CO)c1ccc(Cl)cc1` as the compound, how does the activity change (PNC), negative = inhibition read?
The activity change (PNC), negative = inhibition was inconclusive: -39.5%.

Which activity change (PNC), negative = inhibition does the source give for `CCCCn1c(SCC(=O)c2ccccc2)nc2ccsc2c1=O` here?
The activity change (PNC), negative = inhibition was inactive: -15.7%.

With `CCCc1cc(=O)[nH]c(SC(CC)C(=O)Nc2ccccc2C#N)n1` (stereo not given) as the compound, how does the activity change (PNC), negative = inhibition read?
The activity change (PNC), negative = inhibition was inconclusive: -47.2%.

With `CCC(CC)c1nnc(NC(=O)c2ccc(S(=O)(=O)N3CCc4ccccc4C3)cc2)s1` as the compound, how does the activity change (PNC), negative = inhibition read?
The activity change (PNC), negative = inhibition was inconclusive: -35.7%.

Which activity change (PNC), negative = inhibition does the source give for `CCC(C)C(=O)Nc1c2c(nc3c1CCC3)CCCC2` (stereo not given) here?
The activity change (PNC), negative = inhibition was inactive: 2.32%.

Which activity change (PNC), negative = inhibition does the source give for `Cc1cccc(NC(=S)N(CCCN2CCOCC2)Cc2cn(C)c3ccccc23)c1` here?
Its activity change (PNC), negative = inhibition is inconclusive: -34.2%.

Which activity change (PNC), negative = inhibition does the source give for `Cc1ccc(-n2c(C)cc(/C=N\NC(=O)CC(=O)NC(C)C)c2C)cc1` here?
Its activity change (PNC), negative = inhibition is inconclusive: -71.4%.

With `Cc1c(N=Cc2ccc(O)c(Br)c2)cccc1[N+](=O)[O-]` as the compound, how does the activity change (PNC), negative = inhibition read?
Its activity change (PNC), negative = inhibition is inconclusive: -55.9%.

Which activity change (PNC), negative = inhibition does the source give for `COc1ccc(CC(=O)Nc2ccc(N3CCN(c4ccc(OC)cc4)CC3)c(C#N)c2)cc1` here?
Its activity change (PNC), negative = inhibition is inconclusive: -45.1%.

With `CCN(CC)S(=O)(=O)c1cccc(C(=O)/C=C2/N(C)c3ccccc3C2(C)C)c1` as the compound, how does the activity change (PNC), negative = inhibition read?
The activity change (PNC), negative = inhibition was inconclusive: -36.7%.
